In US6750058B1, “Transfecting peptide vector, composition containing same and applications” (Commissariat a l'Energie Atomique, priority 1997, dated 2004):
Part of at least one peptide drawing is inferred or uncertain, most often the ends.

What was measured:
[1] = Size of the transfecting complex by light scattering; type: physicochemical
[2] = system: HeLa cells; experiment: Transfection of HeLa cells with luciferase plasmid pGL3, light emission in cell lysates; type: cell-based
Procedure: The HeLa cells are cultured at 37° C. in an EMEM medium supplemented with 10% foetal calf serum under an atmosphere containing 5% CO2.
1.5 to 12 μg of peptide I in 50 μl of dilution buffer (20 mM Tris, pH 7.4, 150 mM NaCl) are incubated with 1.5 μg of plasmid pGL3 in 250 μl of EMEM medium for 15 to 30 min at room temperature.
The mixture of DOTAP or of DOSPER with 1.5 μg of plasmid pGL3 is prepared according to the manufacturer's instructions (Boehringer). For the studies of the effect of the peptide on transfection in the presence of liposomes, portions of peptides are mixed with DOTAP or DOSPER in the dilution buffer defined above for 15 to 30 min at room temperature, and then 1.5 μg of plasmid pGL3 are added and incubated for 15 min at room temperature.
The transfections are carried out in plates comprising 24 wells (Beckton Dickinson) with 1.5×10^5 cells/well (confluence of about 50%) for 1 h at 37° C. After 24 h, the light emission is measured in the cell lysates with the Promega Luciferase Assay System test.

[3] = system: plasmid DNA (pGL3); experiment: Retardation gel of plasmid DNA preincubated with peptide; type: binding; settings: 500 ng of plasmid DNA (FIG. 3)

CC(C)C[C@H](NC(=O)[C@H](CCCNC(=N)N)NC(=O)[C@H](C)NC(=O)[C@H](CCCNC(=N)N)NC(=O)[C@H](CCCCN)NC(=O)[C@H](C)N)C(=O)N[C@@H](CO)C(=O)N[C@H](C(=O)N[C@@H](CO)C(=O)N[C@@H](Cc1ccccc1)C(=O)N[C@@H](CC(N)=O)C(=O)N1CCC[C@H]1C(=O)N[C@H](C(=O)N[C@@H](Cc1ccc(O)cc1)C(=O)N1CCC[C@H]1C(=O)N[C@@H](Cc1ccc(O)cc1)C(=O)N[C@@H](CCC(=O)O)C(=O)N[C@@H](CC(=O)O)C(=O)N[C@@H](CCC(=O)O)C(=O)N[C@@H](CO)C(=O)N[C@@H](CCCCN)C(=O)N[C@@H](CCCCN)C(=O)N[C@@H](CCCCN)C(=O)N[C@@H](CCCCN)C(=O)N[C@@H](CCCCN)C(=O)N[C@@H](CCCCN)C(=O)N[C@@H](CCCCN)C(=O)N[C@@H](CCCCN)C(=O)N[C@@H](CCCCN)C(=O)N[C@@H](CCCCN)C(=O)N[C@@H](CCCCN)C(=O)N[C@@H](CCCCN)C(=O)N[C@@H](CCCCN)C(=O)N[C@@H](CCCCN)C(=O)N[C@@H](CCCCN)C(=O)N[C@@H](CCCCN)C(=O)N[C@@H](CCCCN)C(=O)N[C@@H](CCCCN)C(=O)N[C@@H](CCCCN)C(=O)N[C@@H](CCCCN)C(=O)O)C(C)C)[C@@H](C)O [Peptide I, AKRARLSTSFNPVYPYEDES - K20]
proportion of complexes reaching a diameter of 660-1100 nm ([1]; after 1 h): more than 90% | diameter of DNA/peptide I complexes ([1]; after 1 h, reached by more than 90% of the complexes): 660-1100 nm | diameter of DNA/peptide I complexes ([1]; immediately after the mixing): 350-360 nm | NaCl concentration at transfection optimum ([2]; 1 h of transfection, expression measured 24 h after transfection (FIG. 1B)): 125 mM | excess of neutralizing peptide charges relative to the DNA at highest transfection efficiency ([2]; FIG. 1B): ~4 | time after transfection up to which expression of the transgene may be observed ([2]; FIG. 2): up to 6 days | RLU (luciferase light emission) ([2]; Table II, peptide 3 μg, DNA 1.5 μg): 450 RLU/10 s/10^5 cells × 10^3 | RLU (luciferase light emission) ([2]; Table II, peptide 6 μg, DNA 1.5 μg): 4920 RLU/10 s/10^5 cells × 10^3 | RLU (luciferase light emission) ([2]; Table II, peptide 9 μg, DNA 1.5 μg): 1450 RLU/10 s/10^5 cells × 10^3 | RLU (luciferase light emission) ([2]; Table II, peptide 12 μg, DNA 1.5 μg): 1170 RLU/10 s/10^5 cells × 10^3 | RLU (luciferase light emission) ([2]; Table III, peptide 6 μg (+ 0.1% DMSO), DNA 1.5 μg): 11,320 RLU/10 s/10^5 cells × 10^3 | RLU (luciferase light emission) ([2]; Table III, peptide 6 μg (+ 10% glycerol), DNA 1.5 μg): 34,900 RLU/10 s/10^5 cells × 10^3 | RLU (luciferase light emission) ([2]; Table III, peptide 6 μg, DNA 1.5 μg): 12,600 RLU/10 s/10^5 cells × 10^3 | RLU (luciferase light emission) ([2]; Table IV, DOSPER:DNA 4, Peptide I:DNA 1): 3160 ± 760 RLU/10 sec/10^5 cells × 10^3 | RLU (luciferase light emission) ([2]; Table IV, DOSPER:DNA 4, Peptide I:DNA 2): 11,102 ± 2370 RLU/10 sec/10^5 cells × 10^3 | RLU (luciferase light emission) ([2]; Table IV, DOSPER:DNA 4, Peptide I:DNA 4): 5140 RLU/10 sec/10^5 cells × 10^3 | RLU (luciferase light emission) ([2]; Table IV, DOSPER:DNA 5.5, Peptide I:DNA 1): 18,820 RLU/10 sec/10^5 cells × 10^3 | RLU (luciferase light emission) ([2]; Table IV, DOSPER:DNA 5.5, Peptide I:DNA 2): 13,760 RLU/10 sec/10^5 cells × 10^3 | RLU (luciferase light emission) ([2]; Table IV, DOSPER:DNA 5.5, Peptide I:DNA 4): 12,840 RLU/10 sec/10^5 cells × 10^3 | RLU (luciferase light emission) ([2]; Table IV, DOTAP:DNA 2, Peptide I:DNA 2): 28,900 ± 890 RLU/10 sec/10^5 cells × 10^3 | RLU (luciferase light emission) ([2]; Table IV, DOTAP:DNA 2, Peptide I:DNA 4): 30,440 ± 2360 RLU/10 sec/10^5 cells × 10^3 | RLU (luciferase light emission) ([2]; Table IV, DOTAP:DNA 4, Peptide I:DNA 2): 15,050 ± 340 RLU/10 sec/10^5 cells × 10^3 | RLU (luciferase light emission) ([2]; Table IV, DOTAP:DNA 4, Peptide I:DNA 4): 17,750 ± 750 RLU/10 sec/10^5 cells × 10^3 | RLU (luciferase light emission) ([2]; Table IV, DOTAP:DNA 6, Peptide I:DNA 2): 3800 ± 770 RLU/10 sec/10^5 cells × 10^3 | RLU (luciferase light emission) ([2]; Table IV, DOTAP:DNA 6, Peptide I:DNA 4): 7300 ± 150 RLU/10 sec/10^5 cells × 10^3 | RLU (luciferase light emission) ([2]; Table IV, No liposome, Peptide I:DNA 2): 13,550 ± 2930 RLU/10 sec/10^5 cells × 10^3 | RLU (luciferase light emission) ([2]; Table IV, No liposome, Peptide I:DNA 4): 35,500 RLU/10 sec/10^5 cells × 10^3 | RLU (luciferase light emission) ([2]; Table V Experiment 1, Peptide:DNA 2, preincubation at room temperature 15 min): 410 RLU/10 sec/10^5 cells × 10^3 | RLU (luciferase light emission) ([2]; Table V Experiment 1, Peptide:DNA 2, preincubation at room temperature 60 min): 150 RLU/10 sec/10^5 cells × 10^3 | RLU (luciferase light emission) ([2]; Table V Experiment 1, Peptide:DNA 2, preincubation at room temperature 120 min): 827 RLU/10 sec/10^5 cells × 10^3 | RLU (luciferase light emission) ([2]; Table V Experiment 1, Peptide:DNA 4, preincubation at room temperature 15 min): 2540 RLU/10 sec/10^5 cells × 10^3 | RLU (luciferase light emission) ([2]; Table V Experiment 1, Peptide:DNA 4, preincubation at room temperature 60 min): 1900 RLU/10 sec/10^5 cells × 10^3 | RLU (luciferase light emission) ([2]; Table V Experiment 1, Peptide:DNA 4, preincubation at room temperature 120 min): 1460 RLU/10 sec/10^5 cells × 10^3 | RLU (luciferase light emission) ([2]; Table V Experiment 1, Peptide:DNA 6, preincubation at room temperature 15 min): 702 RLU/10 sec/10^5 cells × 10^3 | RLU (luciferase light emission) ([2]; Table V Experiment 1, Peptide:DNA 6, preincubation at room temperature 60 min): 3460 RLU/10 sec/10^5 cells × 10^3 | RLU (luciferase light emission) ([2]; Table V Experiment 1, Peptide:DNA 6, preincubation at room temperature 120 min): 980 RLU/10 sec/10^5 cells × 10^3 | RLU (luciferase light emission) ([2]; Table V Experiment 2, Peptide:DNA 4, preincubation at room temperature 0 min): 400 RLU/10 sec/10^5 cells × 10^3 | RLU (luciferase light emission) ([2]; Table V Experiment 2, Peptide:DNA 4, preincubation at room temperature 15 min): 3240 RLU/10 sec/10^5 cells × 10^3 | RLU (luciferase light emission) ([2]; Table V Experiment 2, Peptide:DNA 4, preincubation at room temperature 30 min): 4950 RLU/10 sec/10^5 cells × 10^3 | RLU (luciferase light emission) ([2]; Table V Experiment 2, Peptide:DNA 4, preincubation at room temperature 60 min): 4120 RLU/10 sec/10^5 cells × 10^3 | RLU (luciferase light emission) ([2]; Table V Experiment 3, Peptide:DNA 4, preincubation at room temperature 0 min): 1710 RLU/10 sec/10^5 cells × 10^3 | RLU (luciferase light emission) ([2]; Table V Experiment 3, Peptide:DNA 4, preincubation at room temperature 15 min): 14,550 RLU/10 sec/10^5 cells × 10^3 | RLU (luciferase light emission) ([2]; Table V Experiment 3, Peptide:DNA 4, preincubation at room temperature 30 min): 23,170 RLU/10 sec/10^5 cells × 10^3 | RLU (luciferase light emission) ([2]; Table V Experiment 3, Peptide:DNA 4, preincubation at room temperature 60 min): 32,175 RLU/10 sec/10^5 cells × 10^3 | RLU (luciferase light emission) ([2]; Table V Experiment 3, Peptide:DNA 4, preincubation at room temperature 120 min): 6800 RLU/10 sec/10^5 cells × 10^3 | transfection with the peptide alone compared with liposome/peptide mixture ([2]; absence of liposomes, peptide/DNA ratios of 4 (Table IV)): superior to those observed with the liposome/peptide mixture | effect of serum on transfection ([2]; addition of 2% serum): completely abolishes the transfection | transfection after preincubation of cells with peptide I ([2]; cells preincubated with peptide I at 4° C. for 2 h (FIG. 6)): complete inhibition of transfection | expression of luciferase ([2]; transfections carried out at 4° C.): no expression of luciferase | migration of the DNA on retardation gel ([3]; 250 ng of peptide): causes retardation in the migration of the DNA | migration of the DNA on retardation gel ([3]; 500 ng of peptide): completely stops its migration
